Reference: publication PMC4625156
Results are given in words; binding and its absence hold for the method and conditions named. In cells and extracts the contact can be indirect. Some entries that bind do so weakly or less than the wild type.

Amino acid sequences for entries named in this document (tags omitted).
UniProt P62993: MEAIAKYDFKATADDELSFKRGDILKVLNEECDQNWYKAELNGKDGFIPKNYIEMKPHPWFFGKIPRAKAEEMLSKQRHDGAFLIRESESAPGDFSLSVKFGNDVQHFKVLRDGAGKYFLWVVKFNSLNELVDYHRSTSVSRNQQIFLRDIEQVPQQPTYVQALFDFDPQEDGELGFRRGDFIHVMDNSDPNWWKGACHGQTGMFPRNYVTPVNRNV
UniProt P23727: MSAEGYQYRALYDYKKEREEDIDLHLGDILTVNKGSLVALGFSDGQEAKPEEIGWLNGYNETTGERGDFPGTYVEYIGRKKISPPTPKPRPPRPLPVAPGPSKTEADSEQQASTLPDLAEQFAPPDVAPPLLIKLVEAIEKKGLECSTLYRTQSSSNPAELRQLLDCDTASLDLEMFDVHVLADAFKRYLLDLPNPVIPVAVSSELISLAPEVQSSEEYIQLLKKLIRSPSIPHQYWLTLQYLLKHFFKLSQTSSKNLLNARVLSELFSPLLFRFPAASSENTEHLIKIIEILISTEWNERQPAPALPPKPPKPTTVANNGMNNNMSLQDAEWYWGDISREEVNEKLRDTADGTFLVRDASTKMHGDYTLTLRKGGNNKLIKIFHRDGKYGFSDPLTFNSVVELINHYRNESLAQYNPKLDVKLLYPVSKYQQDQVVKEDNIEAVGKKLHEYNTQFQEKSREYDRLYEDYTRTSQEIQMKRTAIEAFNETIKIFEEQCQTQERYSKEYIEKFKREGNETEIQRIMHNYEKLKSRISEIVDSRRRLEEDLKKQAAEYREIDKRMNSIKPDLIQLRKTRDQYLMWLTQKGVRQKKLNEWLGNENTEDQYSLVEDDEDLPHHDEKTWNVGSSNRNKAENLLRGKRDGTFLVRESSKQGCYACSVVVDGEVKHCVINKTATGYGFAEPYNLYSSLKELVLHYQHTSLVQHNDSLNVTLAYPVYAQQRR

Legend:
[1] = molecular target: GST-Grb2 (Growth factor receptor-bound protein 2) (UniProt P62993); experiment: pull-down; as a1, but lysate of virulent macrophages treated with the Grb2-SH3 competitive peptide peptidimer-c (1 μM, 1 h, 37 °C) before lysis; only the target purified
[2] = molecular target: GST-Grb2 (Growth factor receptor-bound protein 2) (UniProt P62993); experiment: condition: only virulent macrophages treated with 1 μM peptidimer-c; pull-down; as a1, but lysate of virulent macrophages treated with the Grb2-SH3 competitive peptide peptidimer-c (1 μM, 1 h, 37 °C) before lysis; only the target purified
[3] = molecular target: GST-Grb2 (Growth factor receptor-bound protein 2) (UniProt P62993); experiment: pull-down; 10 μl GST-Grb2 beads incubated overnight at 4 °C with 50 μl RIPA/PBS lysate of virulent or attenuated Theileria-infected macrophages (untreated or treated with the control penetrating peptide PEN); blot with anti-p85 or anti-TGFβ RII; only the target purified

- binding [1]: binds
- binding [2]: no binding
- binding [3]: binds
Substance: p85 regulatory subunit of PI3-K (from UniProt P23727 1-724)
